Laboratory results taken from publication PMC9266683.
No constants are given. Whether binding was seen depends on the method and setting. Binding seen in cells or lysates may run through a third protein. Some results given as binding are weak or reduced against the parent protein; the word gives no strength. Tags and fused reporters may be left off the sequences shown.

By UniProt entry, the sequences of proteins in these tests, tags left out. Where a name states a change or a piece, a line headed by the entry shows the natural chain unless it says otherwise. Chains listed by the source or under a name are the forms on record and can include a tag or linker. Residues count along the entry.
UniProt O48686: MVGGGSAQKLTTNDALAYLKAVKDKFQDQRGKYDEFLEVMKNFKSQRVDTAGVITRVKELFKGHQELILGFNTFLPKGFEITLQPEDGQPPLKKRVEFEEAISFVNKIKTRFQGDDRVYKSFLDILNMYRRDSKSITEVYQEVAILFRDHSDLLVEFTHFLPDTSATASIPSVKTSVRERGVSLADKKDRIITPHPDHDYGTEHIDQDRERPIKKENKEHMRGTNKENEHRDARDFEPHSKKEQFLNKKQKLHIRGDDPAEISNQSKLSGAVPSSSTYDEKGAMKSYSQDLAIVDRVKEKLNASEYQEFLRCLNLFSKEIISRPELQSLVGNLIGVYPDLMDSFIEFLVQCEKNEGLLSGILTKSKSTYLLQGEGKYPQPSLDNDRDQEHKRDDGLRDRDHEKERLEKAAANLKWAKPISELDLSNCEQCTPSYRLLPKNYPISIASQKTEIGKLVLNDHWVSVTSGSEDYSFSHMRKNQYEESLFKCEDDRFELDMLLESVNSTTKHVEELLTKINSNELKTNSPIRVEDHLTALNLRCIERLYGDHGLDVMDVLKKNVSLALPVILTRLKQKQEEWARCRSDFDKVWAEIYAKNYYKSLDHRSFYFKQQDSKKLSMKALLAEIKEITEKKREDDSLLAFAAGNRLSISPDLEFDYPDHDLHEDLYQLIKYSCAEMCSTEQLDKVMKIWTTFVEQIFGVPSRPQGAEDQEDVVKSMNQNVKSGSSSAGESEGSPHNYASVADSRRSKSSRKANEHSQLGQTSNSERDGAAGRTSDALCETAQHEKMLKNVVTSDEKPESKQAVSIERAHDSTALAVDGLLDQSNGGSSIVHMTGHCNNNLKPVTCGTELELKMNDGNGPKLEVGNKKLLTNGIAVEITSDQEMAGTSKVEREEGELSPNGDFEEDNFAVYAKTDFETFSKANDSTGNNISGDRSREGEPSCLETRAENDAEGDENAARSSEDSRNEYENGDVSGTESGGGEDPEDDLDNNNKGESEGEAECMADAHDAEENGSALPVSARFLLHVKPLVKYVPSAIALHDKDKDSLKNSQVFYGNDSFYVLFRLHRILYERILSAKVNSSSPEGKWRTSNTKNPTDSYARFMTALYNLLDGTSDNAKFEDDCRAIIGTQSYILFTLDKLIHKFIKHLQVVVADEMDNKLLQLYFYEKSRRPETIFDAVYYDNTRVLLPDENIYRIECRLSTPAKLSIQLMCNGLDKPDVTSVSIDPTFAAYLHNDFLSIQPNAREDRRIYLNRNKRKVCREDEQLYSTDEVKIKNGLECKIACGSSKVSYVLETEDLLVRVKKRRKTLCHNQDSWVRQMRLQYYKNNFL
SNL3-PAH (aa 1–390), fused to the C-terminal half of luciferase (cLUC): residues 1-390 of O48686
UniProt O04539: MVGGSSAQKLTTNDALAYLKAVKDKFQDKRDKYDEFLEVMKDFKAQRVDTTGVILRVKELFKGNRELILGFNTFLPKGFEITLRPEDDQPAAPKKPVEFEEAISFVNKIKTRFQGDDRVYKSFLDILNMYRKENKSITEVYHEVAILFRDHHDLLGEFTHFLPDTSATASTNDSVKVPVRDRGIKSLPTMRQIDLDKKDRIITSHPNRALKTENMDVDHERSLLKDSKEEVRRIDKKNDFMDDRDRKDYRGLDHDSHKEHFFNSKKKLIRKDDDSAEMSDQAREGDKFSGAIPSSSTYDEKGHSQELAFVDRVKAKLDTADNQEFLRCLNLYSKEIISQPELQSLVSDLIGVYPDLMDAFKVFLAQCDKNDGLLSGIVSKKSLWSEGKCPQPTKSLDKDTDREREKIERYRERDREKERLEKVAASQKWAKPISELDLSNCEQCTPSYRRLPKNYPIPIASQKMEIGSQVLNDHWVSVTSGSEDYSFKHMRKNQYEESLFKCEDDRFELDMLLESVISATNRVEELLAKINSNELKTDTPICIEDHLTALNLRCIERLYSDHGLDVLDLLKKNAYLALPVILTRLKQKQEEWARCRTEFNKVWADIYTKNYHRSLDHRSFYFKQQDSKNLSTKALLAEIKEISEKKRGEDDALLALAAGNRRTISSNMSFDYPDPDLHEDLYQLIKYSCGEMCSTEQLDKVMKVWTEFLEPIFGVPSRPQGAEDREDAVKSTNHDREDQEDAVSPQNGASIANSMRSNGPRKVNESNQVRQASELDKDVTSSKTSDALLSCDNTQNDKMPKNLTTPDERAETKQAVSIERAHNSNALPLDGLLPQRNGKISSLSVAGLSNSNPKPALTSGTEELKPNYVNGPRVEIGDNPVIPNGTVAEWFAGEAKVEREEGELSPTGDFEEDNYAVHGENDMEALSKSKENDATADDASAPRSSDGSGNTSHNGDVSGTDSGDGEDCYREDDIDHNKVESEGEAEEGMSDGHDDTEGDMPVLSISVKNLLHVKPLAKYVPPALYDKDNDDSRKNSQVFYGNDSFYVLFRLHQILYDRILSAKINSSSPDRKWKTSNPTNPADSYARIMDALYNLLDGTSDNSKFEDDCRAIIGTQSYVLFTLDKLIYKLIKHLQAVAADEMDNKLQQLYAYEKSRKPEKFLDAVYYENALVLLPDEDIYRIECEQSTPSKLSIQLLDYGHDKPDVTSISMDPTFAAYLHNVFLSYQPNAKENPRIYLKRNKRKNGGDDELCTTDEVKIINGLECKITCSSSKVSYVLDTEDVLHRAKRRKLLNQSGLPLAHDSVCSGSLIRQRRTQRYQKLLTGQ
SNL4-PAH (aa 1–420), fused to the C-terminal half of luciferase (cLUC): residues 1-420 of O04539
UniProt Q9XIE1: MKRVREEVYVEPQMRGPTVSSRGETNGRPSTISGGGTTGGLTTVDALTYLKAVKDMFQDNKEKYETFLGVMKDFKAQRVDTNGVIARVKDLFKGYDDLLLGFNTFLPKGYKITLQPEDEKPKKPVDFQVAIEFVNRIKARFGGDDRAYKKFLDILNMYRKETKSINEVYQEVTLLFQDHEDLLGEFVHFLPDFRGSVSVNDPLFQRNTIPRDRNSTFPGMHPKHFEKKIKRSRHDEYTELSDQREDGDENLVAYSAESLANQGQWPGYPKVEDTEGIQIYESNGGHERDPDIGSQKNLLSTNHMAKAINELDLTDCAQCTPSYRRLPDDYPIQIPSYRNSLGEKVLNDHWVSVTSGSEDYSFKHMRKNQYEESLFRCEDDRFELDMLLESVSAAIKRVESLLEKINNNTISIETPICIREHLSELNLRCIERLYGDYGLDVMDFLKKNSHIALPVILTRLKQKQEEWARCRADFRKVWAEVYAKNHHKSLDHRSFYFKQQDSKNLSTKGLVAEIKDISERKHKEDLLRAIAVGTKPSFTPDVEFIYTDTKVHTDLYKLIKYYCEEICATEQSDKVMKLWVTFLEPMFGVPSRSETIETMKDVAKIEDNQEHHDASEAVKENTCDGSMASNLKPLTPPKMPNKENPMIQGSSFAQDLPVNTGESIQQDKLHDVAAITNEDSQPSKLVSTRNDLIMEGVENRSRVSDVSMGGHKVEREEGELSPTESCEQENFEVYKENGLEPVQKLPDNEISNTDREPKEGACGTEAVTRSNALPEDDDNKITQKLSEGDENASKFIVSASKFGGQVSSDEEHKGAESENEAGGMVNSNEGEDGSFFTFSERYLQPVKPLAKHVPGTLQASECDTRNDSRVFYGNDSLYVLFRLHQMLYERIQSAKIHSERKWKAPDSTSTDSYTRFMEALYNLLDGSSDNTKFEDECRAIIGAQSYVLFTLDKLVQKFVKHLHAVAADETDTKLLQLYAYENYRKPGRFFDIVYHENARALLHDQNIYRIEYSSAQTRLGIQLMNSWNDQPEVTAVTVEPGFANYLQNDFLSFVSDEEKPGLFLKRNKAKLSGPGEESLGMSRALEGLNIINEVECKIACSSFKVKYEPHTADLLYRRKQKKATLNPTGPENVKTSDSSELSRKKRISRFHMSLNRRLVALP

Columns and labels:
Assay in all cases: split reporter; firefly luciferase complementation imaging (LCI); VAL1 constructs fused to nLUC, SNL constructs to cLUC; co-infiltrated into N. benthamiana leaves, 22 °C for 48 h, imaged with a CCD
[1] = target: T1, SNL2, intact, fused to the C-terminal half of luciferase (cLUC) (Arabidopsis thaliana) (UniProt Q9LFQ3)
T1 sequence: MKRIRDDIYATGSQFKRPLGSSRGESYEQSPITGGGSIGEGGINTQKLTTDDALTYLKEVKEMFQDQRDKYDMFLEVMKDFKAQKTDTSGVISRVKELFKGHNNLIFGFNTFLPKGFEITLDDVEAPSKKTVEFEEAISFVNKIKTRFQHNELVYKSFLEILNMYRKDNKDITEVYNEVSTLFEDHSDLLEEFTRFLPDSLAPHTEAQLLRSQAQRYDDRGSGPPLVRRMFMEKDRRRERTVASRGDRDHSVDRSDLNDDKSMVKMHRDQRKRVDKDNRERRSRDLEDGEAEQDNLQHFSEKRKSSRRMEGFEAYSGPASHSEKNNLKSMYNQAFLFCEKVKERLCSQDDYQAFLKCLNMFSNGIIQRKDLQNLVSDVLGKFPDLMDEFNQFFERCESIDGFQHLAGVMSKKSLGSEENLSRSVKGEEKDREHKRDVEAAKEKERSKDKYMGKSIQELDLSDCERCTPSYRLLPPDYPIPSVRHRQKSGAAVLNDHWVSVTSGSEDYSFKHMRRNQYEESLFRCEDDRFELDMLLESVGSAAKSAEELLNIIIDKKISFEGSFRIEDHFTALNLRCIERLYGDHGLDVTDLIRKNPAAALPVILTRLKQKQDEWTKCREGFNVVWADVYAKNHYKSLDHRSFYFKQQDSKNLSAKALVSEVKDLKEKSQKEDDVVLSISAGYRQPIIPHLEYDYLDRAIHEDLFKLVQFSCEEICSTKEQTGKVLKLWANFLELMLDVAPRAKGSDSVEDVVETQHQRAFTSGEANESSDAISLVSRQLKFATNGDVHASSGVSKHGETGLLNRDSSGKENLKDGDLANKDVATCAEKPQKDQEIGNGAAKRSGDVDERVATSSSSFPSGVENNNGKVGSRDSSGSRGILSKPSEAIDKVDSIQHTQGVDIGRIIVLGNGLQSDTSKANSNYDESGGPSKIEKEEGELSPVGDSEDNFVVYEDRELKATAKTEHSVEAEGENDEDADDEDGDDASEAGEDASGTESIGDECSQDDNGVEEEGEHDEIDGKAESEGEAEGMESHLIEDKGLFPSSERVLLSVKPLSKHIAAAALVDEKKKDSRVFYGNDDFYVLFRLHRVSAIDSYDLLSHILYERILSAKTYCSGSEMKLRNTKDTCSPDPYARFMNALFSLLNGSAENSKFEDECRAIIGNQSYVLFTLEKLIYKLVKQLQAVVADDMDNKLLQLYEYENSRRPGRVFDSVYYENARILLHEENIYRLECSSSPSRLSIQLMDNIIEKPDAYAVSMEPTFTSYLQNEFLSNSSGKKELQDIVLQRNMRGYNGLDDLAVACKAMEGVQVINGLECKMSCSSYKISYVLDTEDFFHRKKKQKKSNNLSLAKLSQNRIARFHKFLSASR

[2] = target: SNL3, intact, fused to the C-terminal half of luciferase (cLUC) (Arabidopsis thaliana) (UniProt O48686)
[3] = target: SNL3-PAH (aa 1–390), fused to the C-terminal half of luciferase (cLUC) (Arabidopsis thaliana) (UniProt O48686)
[4] = target: SNL4, intact, fused to the C-terminal half of luciferase (cLUC) (Arabidopsis thaliana) (UniProt O04539)
[5] = target: SNL4-PAH (aa 1–420), fused to the C-terminal half of luciferase (cLUC) (Arabidopsis thaliana) (UniProt O04539)
[6] = target: SNL5, intact, fused to the C-terminal half of luciferase (cLUC) (Arabidopsis thaliana) (UniProt Q9XIE1)
[7] = target: T2, SNL6-PAH (aa 1–300), fused to the C-terminal half of luciferase (cLUC) (Arabidopsis thaliana) (UniProt Q9XIK6)
T2 sequence: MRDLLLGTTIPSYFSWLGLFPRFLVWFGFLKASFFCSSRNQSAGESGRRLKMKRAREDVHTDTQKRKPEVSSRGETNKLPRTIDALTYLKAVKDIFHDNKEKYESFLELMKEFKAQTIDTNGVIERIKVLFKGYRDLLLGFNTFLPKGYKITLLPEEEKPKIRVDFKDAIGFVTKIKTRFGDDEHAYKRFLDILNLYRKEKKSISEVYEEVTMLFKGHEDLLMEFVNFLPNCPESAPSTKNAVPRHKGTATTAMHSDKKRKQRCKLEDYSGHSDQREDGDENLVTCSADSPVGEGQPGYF

Measured: binding

B1: VAL1, intact, fused to the N-terminal half of luciferase (nLUC) (protein, UniProt Q8W4L5 1-790)
chain: MFEVKMGSKMCMNASCGTTSTVEWKKGWPLRSGLLADLCYRCGSAYESSLFCEQFHKDQSGWRECYLCSKRLHCGCIASKVTIELMDYGGVGCSTCACCHQLNLNTRGENPGVFSRLPMKTLADRQHVNGESGGRNEGDLFSQPLVMGGDKREEFMPHRGFGKLMSPESTTTGHRLDAAGEMHESSPLQPSLNMGLAVNPFSPSFATEAVEGMKHISPSQSNMVHCSASNILQKPSRPAISTPPVASKSAQARIGRPPVEGRGRGHLLPRYWPKYTDKEVQQISGNLNLNIVPLFEKTLSASDAGRIGRLVLPKACAEAYFPPISQSEGIPLKIQDVRGREWTFQFRYWPNNNSRMYVLEGVTPCIQSMMLQAGDTVTFSRVDPGGKLIMGSRKAANAGDMQGCGLTNGTSTEDTSSSGVTENPPSINGSSCISLIPKELNGMPENLNSETNGGRIGDDPTRVKEKKRTRTIGAKNKRLLLHSEESMELRLTWEEAQDLLRPSPSVKPTIVVIEEQEIEEYDEPPVFGKRTIVTTKPSGEQERWATCDDCSKWRRLPVDALLSFKWTCIDNVWDVSRCSCSAPEESLKELENVLKVGREHKKRRTGESQAAKSQQEPCGLDALASAAVLGDTIGEPEVATTTRHPRHRAGCSCIVCIQPPSGKGRHKPTCGCTVCSTVKRRFKTLMMRRKKKQLERDVTAAEDKKKKDMELAESDKSKEEKEVNTARIDLNSDPYNKEDVEAVAVEKEESRKRAIGQCSGVVAQDASDVLGVTELEGEGKNVREEPRVSS
binds: all assays above

B2: VAL1-CW (aa 458–673), fused to the N-terminal half of luciferase (nLUC) (domain or fragment, UniProt Q8W4L5 458-673)
chain: DDPTRVKEKKRTRTIGAKNKRLLLHSEESMELRLTWEEAQDLLRPSPSVKPTIVVIEEQEIEEYDEPPVFGKRTIVTTKPSGEQERWATCDDCSKWRRLPVDALLSFKWTCIDNVWDVSRCSCSAPEESLKELENVLKVGREHKKRRTGESQAAKSQQEPCGLDALASAAVLGDTIGEPEVATTTRHPRHRAGCSCIVCIQPPSGKGRHKPTCGCT
binds: all assays above
